Measured data: PubChem BioAssay AID1259254 (NCATS, 2017)

Assay: 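Gene knock-downs that lead to re-replication, shown by excess G2 DNA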 (primary screen)
System: human HCT116 colorectal cancer cells
Reagent: single siRNA against human genes
Timing: 3 days
Read-out: 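Nuclei stained with Hoechst and imaged; cell-cycle phase assigned by DNA content; G2 share scaled per plate, non-targeting siRNA 0%, GMNN siRNA 100%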
Scale: G2 robust z-score and G2 cells, % of GMNN control: higher = more G2 cells, more excess DNA replication; raw share of cells in G2: higher = larger share of cells with G2 DNA content
Call rule: 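An siRNA counts as active if its G2 robust z-score lies at least 5 MADs above the screen median; here such calls match roughly 38% of GMNN control or more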
The whole screen tested about 59,000 reagents; shown is a random part of them. About 1,550 of all reagents (2.6%) were called active. 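G2 share is only a proxy for re-replication; each gene was hit by three separate siRNAs, and active genes were retested.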 The raw values are shown without normalisation. Reagent sequences are not shown. The record does not give: the amount of reagent.

target | PubChem SID | G2 robust z-score | G2 cells, % of GMNN control | raw share of cells in G2 (%) | Call
MUS81 | SID160750189 | 1.12 | 10.9 | 9.96 | inactive
MUS81 | SID160750190 | 1.02 | 10.2 | 7.87 | inactive
MUS81 | SID160750192 | -0.414 | 0.0557 | 4.81 | inactive
LTBP2 | SID160776765 | -0.597 | -1.23 | 2.79 | inactive
LTBP2 | SID160776767 | -0.295 | 0.891 | 5.82 | inactive
LTBP2 | SID160776768 | -0.541 | -0.836 | 5.04 | inactive
BMP5 | SID160728280 | -1.07 | -4.56 | 3.45 | inactive
BMP5 | SID160728292 | -1.42 | -7.02 | 2.33 | inactive
BMP5 | SID160728302 | -0.243 | 1.26 | 4.46 | inactive
LSM6 | SID160730072 | 0.0821 | 3.54 | 5.08 | inactive
LSM6 | SID160730073 | 0.662 | 7.62 | 9.43 | inactive
LSM6 | SID160730075 | -0.286 | 0.952 | 4.47 | inactive
LSM6 | SID160773115 | -0.512 | -0.637 | 3.84 | inactive
LSM6 | SID160773116 | 0.758 | 8.3 | 6.02 | inactive
LSM6 | SID160773117 | -0.273 | 1.05 | 3.56 | inactive
REDIC1 | SID160762925 | -0.336 | 0.601 | 3.86 | inactive
REDIC1 | SID160762926 | 0.757 | 8.29 | 6.25 | inactive
REDIC1 | SID160762927 | 0.345 | 5.39 | 4.91 | inactive
FER1L6 | SID160771122 | 0.0573 | 3.37 | 4.79 | inactive
FER1L6 | SID160771123 | -0.198 | 1.57 | 3.75 | inactive
FER1L6 | SID160771125 | -0.526 | -0.733 | 2.56 | inactive
ITGAX | SID160775993 | 3.08 | 24.6 | 14 | inactive
ITGAX | SID160775994 | 2.29 | 19.1 | 12.9 | inactive
ITGAX | SID160775995 | -0.592 | -1.2 | 3.76 | inactive
FKBP6P2 | SID160768323 | -0.592 | -1.2 | 3.16 | inactive
FKBP6P2 | SID160768324 | -1.25 | -5.82 | 1.21 | inactive
FKBP6P2 | SID160768325 | -0.877 | -3.21 | 2.03 | inactive
ZMIZ1 | SID160745762 | 0.609 | 7.25 | 6.86 | inactive
ZMIZ1 | SID160745763 | -0.583 | -1.13 | 3.95 | inactive
ZMIZ1 | SID160745764 | -1.03 | -4.31 | 3.86 | inactive
SNX2 | SID160717157 | -0.688 | -1.87 | 2.72 | inactive
SNX2 | SID160717158 | 1.18 | 11.2 | 10.1 | inactive
SNX2 | SID160717160 | 0.744 | 8.2 | 6.08 | inactive
CYFIP2 | SID160738232 | 0.0246 | 3.14 | 7.59 | inactive
CYFIP2 | SID160738233 | -0.531 | -0.772 | 3.93 | inactive
CYFIP2 | SID160738234 | -0.221 | 1.42 | 4.45 | inactive
ZIC3 | SID160718978 | -0.484 | -0.438 | 3.38 | inactive
ZIC3 | SID160718979 | 1.94 | 16.6 | 13.4 | inactive
ZIC3 | SID160718980 | -0.557 | -0.951 | 2.94 | inactive
OR8B2 | SID160738115 | 8.28 | 61.2 | 27.4 | active
OR8B2 | SID160738117 | 3.6 | 28.3 | 16.2 | inactive
OR8B2 | SID160738118 | 1.03 | 10.2 | 6.86 | inactive

Continued, starting with the last 5 of the part before.
target | PubChem SID | G2 robust z-score | G2 cells, % of GMNN control | raw share of cells in G2 (%) | Call
ZIC3 | SID160718979 | 1.94 | 16.6 | 13.4 | inactive
ZIC3 | SID160718980 | -0.557 | -0.951 | 2.94 | inactive
OR8B2 | SID160738115 | 8.28 | 61.2 | 27.4 | active
OR8B2 | SID160738117 | 3.6 | 28.3 | 16.2 | inactive
OR8B2 | SID160738118 | 1.03 | 10.2 | 6.86 | inactive
EML3 | SID160762434 | 1.52 | 13.7 | 8.54 | inactive
EML3 | SID160762435 | -0.667 | -1.73 | 2.54 | inactive
EML3 | SID160762436 | 1.67 | 14.7 | 7.89 | inactive
BIN1 | SID160717300 | 1.05 | 10.4 | 7.57 | inactive
BIN1 | SID160717311 | -0.159 | 1.85 | 5.71 | inactive
BIN1 | SID160717322 | 1.75 | 15.3 | 8.66 | inactive
BRDTP1 | SID160733817 | -0.391 | 0.22 | 3.21 | inactive
BRDTP1 | SID160768904 | 0.882 | 9.17 | 7.13 | inactive
BRDTP1 | SID160768905 | 2.26 | 18.8 | 10 | inactive
OR52K2 | SID160755765 | -0.00853 | 2.91 | 5.26 | inactive
OR52K2 | SID160755766 | -0.26 | 1.14 | 3.67 | inactive
OR52K2 | SID160755767 | -0.778 | -2.5 | 1.09 | inactive
ACSL3 | SID160763653 | 2 | 17.1 | 11.4 | inactive
ACSL3 | SID160763663 | 1.97 | 16.8 | 11.7 | inactive
ACSL3 | SID160763674 | -0.62 | -1.39 | 3.16 | inactive
OR2M5 | SID160756566 | -0.602 | -1.27 | 3.7 | inactive
OR2M5 | SID160756567 | -0.564 | -0.998 | 2.79 | inactive
OR2M5 | SID160756568 | -0.341 | 0.569 | 2.79 | inactive
CLCN1 | SID160744127 | 0.913 | 9.39 | 8.71 | inactive
CLCN1 | SID160744139 | -0.728 | -2.15 | 4.05 | inactive
CLCN1 | SID160744149 | -1.14 | -5.07 | 2.4 | inactive
LRRC14 | SID160722797 | -0.517 | -0.673 | 5.03 | inactive
LRRC14 | SID160722798 | 2.92 | 23.5 | 13.8 | inactive
LRRC14 | SID160735245 | -0.611 | -1.33 | 2.92 | inactive
TAF13 | SID160717681 | 0.337 | 5.34 | 6.53 | inactive
TAF13 | SID160717682 | 0.446 | 6.1 | 6.14 | inactive
TAF13 | SID160717683 | 2.16 | 18.1 | 8.96 | inactive
